Laboratory results published in article PMC8274477.
Results are given in words; binding and its absence hold for the method and conditions named. Some binding calls cover weakened binding; strength is not graded here.

Chains of the proteins cited; added tags and fusions are not shown.
UniProt Q969G3: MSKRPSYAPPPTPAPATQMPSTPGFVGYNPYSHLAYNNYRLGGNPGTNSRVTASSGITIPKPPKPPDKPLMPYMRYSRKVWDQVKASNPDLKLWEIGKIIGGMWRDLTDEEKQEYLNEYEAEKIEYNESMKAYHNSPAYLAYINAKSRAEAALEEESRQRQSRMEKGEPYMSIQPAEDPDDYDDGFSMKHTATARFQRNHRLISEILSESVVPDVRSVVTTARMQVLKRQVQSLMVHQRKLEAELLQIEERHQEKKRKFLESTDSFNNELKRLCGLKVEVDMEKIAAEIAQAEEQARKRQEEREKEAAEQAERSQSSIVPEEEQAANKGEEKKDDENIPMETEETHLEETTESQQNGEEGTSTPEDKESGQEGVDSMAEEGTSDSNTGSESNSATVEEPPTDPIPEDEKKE
UniProt P33993: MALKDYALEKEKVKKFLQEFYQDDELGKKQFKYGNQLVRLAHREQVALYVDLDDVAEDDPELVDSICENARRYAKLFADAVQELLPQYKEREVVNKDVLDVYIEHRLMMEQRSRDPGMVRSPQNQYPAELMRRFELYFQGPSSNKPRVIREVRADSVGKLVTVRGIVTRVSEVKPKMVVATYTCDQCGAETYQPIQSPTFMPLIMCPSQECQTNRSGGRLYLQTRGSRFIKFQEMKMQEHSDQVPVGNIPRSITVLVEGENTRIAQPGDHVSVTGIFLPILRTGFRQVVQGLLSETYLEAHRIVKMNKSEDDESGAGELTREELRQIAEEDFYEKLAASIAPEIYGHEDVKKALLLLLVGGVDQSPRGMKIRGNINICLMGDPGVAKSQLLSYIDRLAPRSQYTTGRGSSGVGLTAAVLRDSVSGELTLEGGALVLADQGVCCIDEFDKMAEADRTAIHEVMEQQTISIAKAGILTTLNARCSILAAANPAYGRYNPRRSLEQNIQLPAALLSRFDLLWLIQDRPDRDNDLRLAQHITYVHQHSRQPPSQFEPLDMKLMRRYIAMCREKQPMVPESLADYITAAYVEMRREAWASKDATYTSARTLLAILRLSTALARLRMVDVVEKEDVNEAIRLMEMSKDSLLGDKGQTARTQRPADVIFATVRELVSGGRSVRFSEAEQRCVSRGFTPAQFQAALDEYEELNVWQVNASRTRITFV
UniProt Q92879: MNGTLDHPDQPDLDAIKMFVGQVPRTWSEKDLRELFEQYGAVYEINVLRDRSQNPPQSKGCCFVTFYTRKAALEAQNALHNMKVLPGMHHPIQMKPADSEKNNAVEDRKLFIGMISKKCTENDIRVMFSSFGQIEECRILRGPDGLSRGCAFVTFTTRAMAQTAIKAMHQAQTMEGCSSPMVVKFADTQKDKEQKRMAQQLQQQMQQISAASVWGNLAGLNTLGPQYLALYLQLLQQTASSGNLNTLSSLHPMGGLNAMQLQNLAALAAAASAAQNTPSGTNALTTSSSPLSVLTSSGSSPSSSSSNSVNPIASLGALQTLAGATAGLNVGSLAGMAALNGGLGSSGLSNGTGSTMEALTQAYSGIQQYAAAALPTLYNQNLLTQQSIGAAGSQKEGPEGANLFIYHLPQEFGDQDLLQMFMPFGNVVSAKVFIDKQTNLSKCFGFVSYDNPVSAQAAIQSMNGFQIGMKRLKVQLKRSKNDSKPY
UniProt O43823: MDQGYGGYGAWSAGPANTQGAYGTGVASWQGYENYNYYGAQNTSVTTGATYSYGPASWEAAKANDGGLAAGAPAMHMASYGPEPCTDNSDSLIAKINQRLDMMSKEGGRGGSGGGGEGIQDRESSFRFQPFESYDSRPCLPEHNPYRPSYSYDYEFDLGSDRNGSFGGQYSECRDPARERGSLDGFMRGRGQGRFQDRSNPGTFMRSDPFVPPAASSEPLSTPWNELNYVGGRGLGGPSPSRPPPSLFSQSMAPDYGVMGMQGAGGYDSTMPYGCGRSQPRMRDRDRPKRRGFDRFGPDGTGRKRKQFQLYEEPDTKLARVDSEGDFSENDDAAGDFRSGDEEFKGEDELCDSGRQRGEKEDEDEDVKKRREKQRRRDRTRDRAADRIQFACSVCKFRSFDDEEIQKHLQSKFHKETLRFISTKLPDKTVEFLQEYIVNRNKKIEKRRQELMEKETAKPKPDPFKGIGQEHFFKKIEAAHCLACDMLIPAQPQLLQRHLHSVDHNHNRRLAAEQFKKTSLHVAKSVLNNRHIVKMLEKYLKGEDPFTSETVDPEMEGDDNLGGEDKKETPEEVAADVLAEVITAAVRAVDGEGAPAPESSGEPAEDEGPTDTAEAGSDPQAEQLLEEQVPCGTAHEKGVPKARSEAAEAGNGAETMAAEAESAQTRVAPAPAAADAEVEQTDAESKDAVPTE
UniProt O14964: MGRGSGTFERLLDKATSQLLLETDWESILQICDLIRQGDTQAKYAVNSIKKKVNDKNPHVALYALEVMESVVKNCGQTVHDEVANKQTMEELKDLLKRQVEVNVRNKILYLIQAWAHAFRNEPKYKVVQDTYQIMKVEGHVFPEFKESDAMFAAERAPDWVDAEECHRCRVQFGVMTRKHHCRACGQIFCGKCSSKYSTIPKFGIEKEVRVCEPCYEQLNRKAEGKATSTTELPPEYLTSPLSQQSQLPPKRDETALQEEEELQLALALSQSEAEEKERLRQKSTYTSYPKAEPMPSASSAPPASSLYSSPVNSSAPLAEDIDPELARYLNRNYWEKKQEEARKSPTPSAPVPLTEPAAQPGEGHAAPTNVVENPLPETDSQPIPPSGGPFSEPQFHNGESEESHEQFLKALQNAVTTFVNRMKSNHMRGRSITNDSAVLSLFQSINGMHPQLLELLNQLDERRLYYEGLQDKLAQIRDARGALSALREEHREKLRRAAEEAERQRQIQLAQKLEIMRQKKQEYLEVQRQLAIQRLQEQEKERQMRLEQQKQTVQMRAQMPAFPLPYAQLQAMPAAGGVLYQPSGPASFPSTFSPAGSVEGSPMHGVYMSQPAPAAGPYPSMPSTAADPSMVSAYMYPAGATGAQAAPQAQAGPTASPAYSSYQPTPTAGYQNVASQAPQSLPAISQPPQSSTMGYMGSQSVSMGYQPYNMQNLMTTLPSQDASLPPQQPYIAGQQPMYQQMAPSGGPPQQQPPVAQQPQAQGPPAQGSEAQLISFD
UniProt Q9BRP0: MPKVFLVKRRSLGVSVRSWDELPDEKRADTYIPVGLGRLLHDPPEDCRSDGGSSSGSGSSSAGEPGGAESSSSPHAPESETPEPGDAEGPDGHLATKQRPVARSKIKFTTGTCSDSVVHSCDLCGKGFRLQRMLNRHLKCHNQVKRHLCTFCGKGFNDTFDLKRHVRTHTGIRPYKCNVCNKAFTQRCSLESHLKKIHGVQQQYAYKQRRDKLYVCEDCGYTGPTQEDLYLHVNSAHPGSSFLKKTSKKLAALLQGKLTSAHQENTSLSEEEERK
UniProt O75340: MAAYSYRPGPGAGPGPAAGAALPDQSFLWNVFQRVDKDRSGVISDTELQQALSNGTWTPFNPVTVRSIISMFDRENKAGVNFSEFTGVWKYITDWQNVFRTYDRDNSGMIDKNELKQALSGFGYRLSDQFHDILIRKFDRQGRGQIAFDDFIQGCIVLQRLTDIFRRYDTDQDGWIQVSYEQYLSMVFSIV
UniProt P28482: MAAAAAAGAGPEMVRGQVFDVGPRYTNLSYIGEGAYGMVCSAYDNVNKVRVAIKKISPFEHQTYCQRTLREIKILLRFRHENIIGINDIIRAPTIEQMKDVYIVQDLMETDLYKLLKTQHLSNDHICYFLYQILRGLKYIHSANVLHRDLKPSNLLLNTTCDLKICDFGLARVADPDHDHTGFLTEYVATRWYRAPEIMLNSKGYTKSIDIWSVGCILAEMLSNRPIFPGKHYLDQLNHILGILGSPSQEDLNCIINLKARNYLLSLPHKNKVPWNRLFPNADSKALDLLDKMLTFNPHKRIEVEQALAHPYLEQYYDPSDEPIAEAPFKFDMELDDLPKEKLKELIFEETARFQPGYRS

Columns and labels:
Assay in all cases: peptide or protein array; HuProt human proteome microarray; 5 ug/5 ml biotin-labelled LUBAC or OTULIN in solution, 1 h at room temperature; Cy5-streptavidin, scanned at 635 nm; BSA as negative control; hits: Z-score >= 3 and I_(Mean_Ratio) >= 1.4; both purified
SMARCE1 (human) = SMARCE1 (human) (UniProt Q969G3)
SSBP2 (human) = molecular target: T1, SSBP2 (human) (UniProt P81877)
T1 sequence: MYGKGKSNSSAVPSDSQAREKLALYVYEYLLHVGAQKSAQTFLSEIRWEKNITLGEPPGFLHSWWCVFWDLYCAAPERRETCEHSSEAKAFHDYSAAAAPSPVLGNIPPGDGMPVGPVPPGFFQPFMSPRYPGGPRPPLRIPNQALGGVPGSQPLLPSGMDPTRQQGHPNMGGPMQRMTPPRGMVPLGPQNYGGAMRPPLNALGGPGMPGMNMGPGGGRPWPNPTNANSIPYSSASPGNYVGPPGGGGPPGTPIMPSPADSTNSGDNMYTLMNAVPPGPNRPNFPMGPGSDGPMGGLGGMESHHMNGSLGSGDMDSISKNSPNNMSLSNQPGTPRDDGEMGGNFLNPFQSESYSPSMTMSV

MCM7 (human) = MCM7 (human) (UniProt P33993)
CELF1 (human) = CELF1 (human) (UniProt Q92879)
KIF23 (human) = molecular target: T2, KIF23 (human) (UniProt Q02241)
T2 sequence: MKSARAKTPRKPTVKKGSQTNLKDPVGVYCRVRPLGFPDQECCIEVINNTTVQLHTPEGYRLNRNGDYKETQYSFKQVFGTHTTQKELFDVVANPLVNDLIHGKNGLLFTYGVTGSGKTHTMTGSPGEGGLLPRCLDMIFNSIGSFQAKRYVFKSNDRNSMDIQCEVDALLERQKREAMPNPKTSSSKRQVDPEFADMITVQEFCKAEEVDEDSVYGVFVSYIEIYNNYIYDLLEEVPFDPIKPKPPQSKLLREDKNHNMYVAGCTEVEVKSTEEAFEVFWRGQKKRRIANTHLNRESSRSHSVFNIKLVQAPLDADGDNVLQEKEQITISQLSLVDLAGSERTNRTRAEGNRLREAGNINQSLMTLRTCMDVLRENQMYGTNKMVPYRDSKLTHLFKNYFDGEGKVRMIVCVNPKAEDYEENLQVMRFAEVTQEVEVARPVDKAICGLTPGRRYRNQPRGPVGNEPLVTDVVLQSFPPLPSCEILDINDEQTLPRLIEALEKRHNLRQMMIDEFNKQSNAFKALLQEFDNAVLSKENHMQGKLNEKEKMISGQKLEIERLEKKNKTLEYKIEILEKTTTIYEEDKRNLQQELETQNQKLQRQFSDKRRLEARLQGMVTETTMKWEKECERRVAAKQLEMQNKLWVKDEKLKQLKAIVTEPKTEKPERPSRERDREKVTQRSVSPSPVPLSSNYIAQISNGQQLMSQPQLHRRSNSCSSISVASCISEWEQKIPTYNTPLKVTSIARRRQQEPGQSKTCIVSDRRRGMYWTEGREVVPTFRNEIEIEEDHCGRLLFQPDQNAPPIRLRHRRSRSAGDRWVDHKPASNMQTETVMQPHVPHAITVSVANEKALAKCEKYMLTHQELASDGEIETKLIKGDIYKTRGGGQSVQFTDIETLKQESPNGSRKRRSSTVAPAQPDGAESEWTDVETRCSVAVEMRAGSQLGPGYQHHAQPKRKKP

AKAP8 (human) = AKAP8 (human) (UniProt O43823)
HGS (human) = HGS (human) (UniProt O14964)
OVOL2 (human) = OVOL2 (human) (UniProt Q9BRP0)
PDCD6 (human) = PDCD6 (human) (UniProt O75340)
MAPK1 (human) = MAPK1 (human) (UniProt P28482)

Measured: binding

linear ubiquitin chain assembly complex (LUBAC), purified as HIS-tagged HOIP with the subunit HOIL-1, biotin-labelled (from UniProt Q96EP0 1-1072; Q9BYM8 1-510)
binds: all assays above
